Data set [1] can be described thus: general procedure: Boc solid-phase peptide synthesis; N-BOC-L-Pro-PAM resin; diisopropylcarbodiimide / HOBt in NMP. To be noted: whole synthesis.
Data set [2] can be described thus: general procedure: Boc solid-phase peptide synthesis; N-BOC-L-Pro-PAM resin (0.72 meq/gm); N-BOC-4-benzyloxy-L-Pro-Merrifield resin; PAM-Thr resin; diisopropylcarbodiimide / HOBt in NMP. To be noted: cyclisation step, on linear precursor.
Data set [3] is described as follows: general procedure: Boc solid-phase peptide synthesis; PAM-Thr resin; diisopropylcarbodiimide / HOBt in NMP. Conditions: whole synthesis.
The mark [4] stands for this setting: scale of the general procedure 0.45 meq proline.

For part of these data: Some peptides are written in HELM: one residue between dots, names in brackets for other building blocks, links after the first $.

This note sets out measurements from patent US5229363 (dated 1993).

On to Linear Hexapeptide, for which, in data set [1], the crude mass stood at 290 milligrams and the isolated mass is recorded as 160 milligrams. Moreover, the isolated yield in data set [1] (setting [4]) came to 36% yield.
In turn, “PEPTIDE1{[OctOBz].[Orn].T.P.[hTyr].T.P}$PEPTIDE1,PEPTIDE1,2:R3-7:R2$$$V2.0” showed a cyclisation yield in data set [2] of 54% yield.
crude linear peptide had a crude mass in data set [3] of 327 milligrams. Also, the crude yield in data set [3] (setting [4]) stood at 76% yield.
